Bridges are numbered along the chain shown (N, C = ends). Where no end group is shown, it is not given here.
System: complement component C5
Assay: SEC-SAXS of C5-knob domain complexes
Set-up: species or system human
Details: C5 complex with the peptide, 293 K

With “SVCPDGFDWGYGCAAGSSRFCTRHDWCCYDERADSHTYGFCTGNRVENLYFQ (disulfide 3-28, 13-21, 27-41) [K8]” the “Rg (from P(r))” value (20mM Tris pH 7.35, 75mM NaCl, 3% glycerol, apo C5 4.8 ± 0.1) was 5.4 ± 0.1 nm, the “Rg (from Guinier plot)” value (Tris pH 7.35, apo C5 4.8 ± 0.1) was 5.4 ± 0.1 nm and the Dmax (Tris pH 7.35, apo C5 17.6 ± 0.5) was 18.3 ± 10 nm. The “Porod volume estimate, Vp” value (Tris pH 7.35, apo C5 390 ± 10) was 450 ± 10 nm3.

From publication PMC7972453, “The allosteric modulation of complement C5 by knob domain peptides” (eLife, 2021)
